ChEMBL document CHEMBL1268807, “Discovery of small molecule inhibitors of the PH domain leucine-rich repeat protein phosphatase (PHLPP) by chemical and virtual screening” (J Med Chem, 2010)
pIC50: −log10 of the molar value.

Test: Inhibition of PHLPP expressed in 24 hrs serum starved Cos7 cells assessed as increase of Akt phosphorylation after 30 mins by immunoblotting
Settings: COS-7

Molecule Cc1cc(/N=N/c2ccc(/N=N/c3ccc(O)c(C(=O)O)c3)cc2)c(N)cc1N has a pIC50 of 4.15.
